Patent publication US8785444B2, “Thiazoles and pyrazoles useful as kinase inhibitors” (Vertex Pharmaceuticals Incorporated, priority 2007, dated 2014)
Some entries share one result that the patent states for a list of compounds.

Amino acid sequences for entries named in this document (tags omitted).
UniProt Q96GD4, whole entry: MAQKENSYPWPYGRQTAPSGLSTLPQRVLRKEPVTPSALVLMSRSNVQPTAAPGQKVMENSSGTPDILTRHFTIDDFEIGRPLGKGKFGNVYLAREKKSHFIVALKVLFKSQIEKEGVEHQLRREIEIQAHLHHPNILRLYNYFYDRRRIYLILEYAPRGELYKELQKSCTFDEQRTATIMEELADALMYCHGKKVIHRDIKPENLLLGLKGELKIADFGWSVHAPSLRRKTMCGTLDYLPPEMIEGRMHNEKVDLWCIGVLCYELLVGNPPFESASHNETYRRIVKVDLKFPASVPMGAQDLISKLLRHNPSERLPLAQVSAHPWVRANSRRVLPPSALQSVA

How the values were obtained:
Aurora-2 (Aurora A) = molecular target: T1, Aurora-2 (Aurora A) (Homo sapiens, UniProt O14965); experiment: Aurora-2 (Aurora A) inhibition assay, coupled enzyme; type: biochemical; details: 400 μM ATP, 570 μM Kemptide, 40 nM Aurora-2, 30° C., read-out: Ki value, inhibition of Aura A
T1 sequence (O14965 1-403): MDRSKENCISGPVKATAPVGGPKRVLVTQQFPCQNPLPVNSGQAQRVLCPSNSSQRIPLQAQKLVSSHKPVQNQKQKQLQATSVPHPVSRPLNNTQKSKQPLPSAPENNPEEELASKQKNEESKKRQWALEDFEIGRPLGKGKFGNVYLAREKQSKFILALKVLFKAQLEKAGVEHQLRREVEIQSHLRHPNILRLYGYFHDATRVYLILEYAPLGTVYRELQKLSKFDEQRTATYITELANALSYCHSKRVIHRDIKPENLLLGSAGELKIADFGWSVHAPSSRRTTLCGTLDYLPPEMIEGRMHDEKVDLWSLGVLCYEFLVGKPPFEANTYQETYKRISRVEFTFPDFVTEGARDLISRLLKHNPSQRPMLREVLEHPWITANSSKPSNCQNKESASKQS

Aurora-1 (Aurora B) = Aurora-1 (Aurora B) (Homo sapiens, UniProt Q96GD4); experiment: Aurora-1 (Aurora B) inhibition assay (radiometric); type: biochemical; details: [γ-33P]-ATP 800 μM, Kemptide, 25° C., read-out: Ki value, inhibition of Aura B

**Q.** For `CCC(=O)Nc1ccc(Sc2cc(N3CC(F)(C4CC4)C3)cc(Nc3ncc(C)s3)n2)cc1` [Example 1, N-(4-[4-{3-cyclopropyl-3-fluoroazetidin-1-yl}-6-{5-methylthiazol-2-ylamino}pyridin-2-ylthio]phenyl)proponamide], which Ki (Aurora-2 (Aurora A)) is on record?
**A.** < 0.1 µM

**Q.** And the Ki (Aurora-1 (Aurora B))?
**A.** < 1 µM

**Q.** Which results are given for `Cc1cc(Nc2cc(N3CC(F)(C4CC4)C3)cc(Sc3ccc(NC(=O)C4CC4)cc3)n2)[nH]n1` [Example 2, N-(4-[4-{3-cyclopropyl-3-fluoroazetidin-1-yl}-6-{3-methyl-1H-pyrazol-5-ylamino}pyridin-2-ylthio]phenyl)cycloproponamide]?
**A.** Ki (Aurora-2 (Aurora A)): < 0.1 µM; Ki (Aurora-1 (Aurora B)): < 1 µM

**Q.** For `Cc1cc(Nc2cc(N3CC(F)(C4CC4)C3)cc(Sc3ccc(C(=O)NCC(F)(F)F)cc3)n2)[nH]n1` [Example 3, 4-(4-(3-Cyclopropyl-3-fluoroazetidin-1-yl)-6-(3-methyl-1H-pyrazol-5-ylamino)pyridin-2-ylthio)-N-(2,2,2-trifluoroethyl)benzamide], which Ki (Aurora-2 (Aurora A)) is on record?
**A.** < 0.1 µM

**Q.** And the Ki (Aurora-1 (Aurora B))?
**A.** < 1 µM
